Data as given in PubChem BioAssay AID1159578 (Peter MacCallum Cancer Centre, 2015)
Assay: 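Genome-wide hunt for genes controlling movement of lymphatic endothelial cells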 (primary screen). System: human lymphatic endothelial cells. Reagents: siRNA pool against human genes, 40 nM. Time to read-out: 48 h after transfection. Measurement: 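High-content imaging of dye-stained cells in a scratch assay measures filled wound area and nuclei per well; duplicate means given as ratio to mock and robust z-score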. Scale: migration robust z-score: higher = faster migration into the scratch; migration relative to mock: higher = more scratch area covered than mock; nuclei per well: higher = more cells in the well. Active means: 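Pools averaging fewer than 3300 nuclei are never called; remaining pools count as changed when migration robust z lies outside -2 to 2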. Calls: active = migration changed; inactive = no migration change, or too few cells.
Here is an unselected part of about 18,000 deposited reagents. About 1,030 of them (5.7%) count as active. 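Inactive calls also include pools with fewer than 3300 nuclei, whose migration was not assessed.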 Raw values vary from plate to plate and are shown uncorrected. Reagent sequences are not shown.

The first 4 entries, ahead of the listing:
Target gene	PubChem SID	migration robust z-score	migration class with cell-count check	migration relative to mock	nuclei per well, duplicate mean	Outcome
CANX (calnexin)	SID255348682	-0.04	migration z between -2 and 2; enough cells	0.88	5580	inactive
ANKRD50 (ankyrin repeat domain 50)	SID255359325	-1.05	migration z between -2 and 2; enough cells	0.62	3742	inactive
HNRNPUL1 (heterogeneous nuclear ribonucleoprotein U like 1)	SID255355593	-1.5	migration z between -2 and 2; enough cells	0.5	5322	inactive
GMEB2 (glucocorticoid modulatory element binding protein 2)	SID255356710	0.39	migration z between -2 and 2; enough cells	0.98	5204	inactive

Main list, repeating the preview:
Target gene	PubChem SID	migration robust z-score	migration class with cell-count check	migration relative to mock	nuclei per well, duplicate mean	Outcome
CANX (calnexin)	SID255348682	-0.04	migration z between -2 and 2; enough cells	0.88	5580	inactive
ANKRD50 (ankyrin repeat domain 50)	SID255359325	-1.05	migration z between -2 and 2; enough cells	0.62	3742	inactive
HNRNPUL1 (heterogeneous nuclear ribonucleoprotein U like 1)	SID255355593	-1.5	migration z between -2 and 2; enough cells	0.5	5322	inactive
GMEB2 (glucocorticoid modulatory element binding protein 2)	SID255356710	0.39	migration z between -2 and 2; enough cells	0.98	5204	inactive
TFB2M (transcription factor B2, mitochondrial)	SID255359872	1.25	migration z between -2 and 2; enough cells	1.04	6031	inactive
PGD (phosphogluconate dehydrogenase)	SID255351538	0.44	migration z between -2 and 2; enough cells	0.89	5622	inactive
RHBDD3 (rhomboid domain containing 3)	SID255356476	-0.9	migration z between -2 and 2; enough cells	0.66	5021	inactive
ZDHHC1 (zDHHC palmitoyltransferase 1)	SID255357178	-1.23	migration z between -2 and 2; enough cells	0.56	4756	inactive
CTNNB1 (catenin beta 1)	SID255349163	-0.94	migration z between -2 and 2; enough cells	0.62	6122	inactive
SSR3 (signal sequence receptor subunit 3)	SID255352642	1.34	migration z between -2 and 2; enough cells	1.23	6292	inactive
FAAP100 (FA core complex associated protein 100)	SID255360721	-0.36	migration z between -2 and 2; enough cells	0.78	7319	inactive
HOXD13 (homeobox D13)	SID255350295	1.06	migration z between -2 and 2; enough cells	1.01	6430	inactive
VASH1 (vasohibin 1)	SID255355812	0.42	migration z between -2 and 2; enough cells	1	6512	inactive
MIDN (midnolin)	SID255361775	1.04	migration z between -2 and 2; enough cells	1.15	7042	inactive
GRAMD1A (GRAM domain containing 1A)	SID255359531	2.49	migration z above 2; enough cells	1.53	4852	active
KRT25 (keratin 25)	SID255363320	0.8	migration z between -2 and 2; enough cells	1.09	5820	inactive
KRTAP4-7 (keratin associated protein 4-7)	SID255361652	-0.45	migration z between -2 and 2; enough cells	0.77	5488	inactive
HLA-K (major histocompatibility complex, class I, K (pseudogene))	SID255366123	-1.71	migration z between -2 and 2; enough cells	0.44	5832	inactive
MARVELD3 (MARVEL domain containing 3)	SID255361961	-0.69	migration z between -2 and 2; enough cells	0.7	6538	inactive
MBOAT2 (membrane bound glycerophospholipid O-acyltransferase 2)	SID255362839	0.12	migration z between -2 and 2; enough cells	0.92	6506	inactive
TNFSF13 (TNF superfamily member 13)	SID255353781	-2.15	migration z below -2; enough cells	0.33	5092	active
XPR1 (xenotropic and polytropic retrovirus receptor 1)	SID255354119	0.88	migration z between -2 and 2; enough cells	0.98	6533	inactive
DCAF6 (DDB1 and CUL4 associated factor 6)	SID255358894	2.39	migration z above 2; enough cells	1.5	6794	active
SYTL2 (synaptotagmin like 2)	SID255358206	0.88	migration z between -2 and 2; enough cells	1.11	4542	inactive
KMT5A (lysine methyltransferase 5A)	SID255365462	1.4	migration z between -2 and 2; enough cells	1.08	5171	inactive
ALS2CL (ALS2 C-terminal like)	SID255364567	-1.29	migration z between -2 and 2; enough cells	0.55	5471	inactive
TNKS (tankyrase)	SID255353714	-0.7	migration z between -2 and 2; enough cells	0.67	3826	inactive
GINS4 (GINS complex subunit 4)	SID255361310	-0.7	migration z between -2 and 2; enough cells	0.7	5963	inactive
BUD13 (BUD13 spliceosome associated protein)	SID255361511	0.83	migration z between -2 and 2; enough cells	1.1	5939	inactive
ZNF532 (zinc finger protein 532)	SID255358498	-0.64	migration z between -2 and 2; enough cells	0.72	5586	inactive
MOGS (mannosyl-oligosaccharide glucosidase)	SID255353313	-0.36	migration z between -2 and 2; enough cells	0.74	6844	inactive
TMEM94 (transmembrane protein 94)	SID255354542	0.26	migration z between -2 and 2; enough cells	0.96	4464	inactive
FBXW8 (F-box and WD repeat domain containing 8)	SID255356740	-2.08	migration z below -2; enough cells	0.4	5822	active
TIGD7 (tigger transposable element derived 7)	SID255361891	0.52	migration z between -2 and 2; enough cells	1.02	5742	inactive
PSMB8 (proteasome 20S subunit beta 8)	SID255351890	-0.62	migration z between -2 and 2; enough cells	0.68	3788	inactive
STAT6 (signal transducer and activator of transcription 6)	SID255352667	0.39	migration z between -2 and 2; enough cells	0.88	5780	inactive
NKRF (NFKB repressing factor)	SID255358958	-0.41	migration z between -2 and 2; enough cells	0.78	6970	inactive
PLA2G12A (phospholipase A2 group XIIA)	SID255360909	0.44	migration z between -2 and 2; enough cells	0.89	4416	inactive
SCRN1 (secernin 1)	SID255354570	-0.06	migration z between -2 and 2; enough cells	0.8	6146	inactive
HOXA5 (homeobox A5)	SID255350261	-0.21	migration z between -2 and 2; enough cells	0.76	4460	inactive
SUN1 (Sad1 and UNC84 domain containing 1)	SID255356179	-0.35	migration z between -2 and 2; enough cells	0.8	5066	inactive
C6orf120 (chromosome 6 open reading frame 120)	SID255365431	1.66	migration z between -2 and 2; enough cells	1.31	5897	inactive
NFYB (nuclear transcription factor Y subunit beta)	SID255351235	1.09	migration z between -2 and 2; enough cells	1.02	5530	inactive
GPNMB (glycoprotein nmb)	SID255355093	-1.31	migration z between -2 and 2; enough cells	0.54	5266	inactive
DAB2 (DAB adaptor protein 2)	SID255349227	-1.9	migration z between -2 and 2; enough cells	0.44	6931	inactive
CLIP1 (CAP-Gly domain containing linker protein 1)	SID255352248	-2.2	migration z below -2; enough cells	0.32	5980	active
MROH5 (maestro heat like repeat family member 5 (gene/pseudogene))	SID255365575	-1.2	migration z between -2 and 2; enough cells	0.57	5912	inactive
PRKCZ (protein kinase C zeta)	SID255351807	0.2	migration z between -2 and 2; enough cells	0.84	6944	inactive
FYN (FYN proto-oncogene, Src family tyrosine kinase)	SID255349776	-0.31	migration z between -2 and 2; enough cells	0.74	6221	inactive
ADGRB3 (adhesion G protein-coupled receptor B3)	SID255348504	-0.24	migration z between -2 and 2; enough cells	0.76	4893	inactive
ATP6AP2 (ATPase H+ transporting accessory protein 2)	SID255354857	-0.99	migration z between -2 and 2; enough cells	0.63	5229	inactive
RCHY1 (ring finger and CHY zinc finger domain containing 1)	SID255356538	-0.05	migration z between -2 and 2; enough cells	0.8	5622	inactive
AMELY (amelogenin Y-linked)	SID255348290	-1.09	migration z between -2 and 2; enough cells	0.6	4862	inactive
ERCC1 (ERCC excision repair 1, endonuclease non-catalytic subunit)	SID255349544	0.31	migration z between -2 and 2; enough cells	0.86	4372	inactive
ZNF248 (zinc finger protein 248)	SID255359338	-0.92	migration z between -2 and 2; enough cells	0.64	6140	inactive
COL28A1 (collagen type XXVIII alpha 1 chain)	SID255365076	1.25	migration z between -2 and 2; enough cells	1.21	4948	inactive
USP13 (ubiquitin specific peptidase 13)	SID255353947	0.76	migration z between -2 and 2; enough cells	0.95	5618	inactive
